Toxoplasma: 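Assay of Toxoplasma gondii numbers, read through their beta-galactosidase reporter with a colour substrate. Tested at 10 µM. The record gives no direction; the compounds picked for IC50 retests had high values, so higher reads as fewer parasites. About 67,000 compounds were tested under these conditions; 0.38% (about 260) showed 50% or more at least once.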
ClpP1P2: 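ClpP1P2, Mycobacterium tuberculosis (UniProt P9WPC5 and UniProt P9WPC3). Protease assay of ClpP1P2, read by the AMC dye that it sets free. Concentration: 50 µM. Higher reads as stronger inhibition, judged from the few compounds that gave an IC50. Most other retested compounds had strongly negative values. Of about 69,000 compounds tested this way, about 10 (0.015%) reached 50% or more in at least one test.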
Leishmania in macrophages: 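Cell assay of Leishmania donovani living inside macrophages; the read-out is not stated. Concentration: 30 µM. Direction is inferred from retests: higher values go with stronger inhibition. Size under these conditions: about 69,000 compounds, about 1,000 of them at 50% or above in at least one test.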
T. brucei: 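Whole-parasite assay of Trypanosoma brucei over 72 hours; the read-out is not stated. Concentration: 30 µM. Higher reads as stronger inhibition (inferred: compounds with an IC50 in retests scored well above the rest). Values scatter widely below zero; nearly all retest evidence comes from the higher of the two concentrations used. About 64,000 compounds were tested under these conditions; 1.5% (about 940) showed 50% or more at least once.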

The chains behind the UniProt entries cited, without tags or fusion partners.
UniProt P9WPC5, whole entry: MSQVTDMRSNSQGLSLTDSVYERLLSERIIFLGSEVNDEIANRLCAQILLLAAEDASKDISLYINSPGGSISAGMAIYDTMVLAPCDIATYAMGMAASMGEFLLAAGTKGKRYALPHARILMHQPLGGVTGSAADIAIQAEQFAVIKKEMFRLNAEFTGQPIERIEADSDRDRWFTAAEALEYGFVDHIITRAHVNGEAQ
UniProt P9WPC3, whole entry partner: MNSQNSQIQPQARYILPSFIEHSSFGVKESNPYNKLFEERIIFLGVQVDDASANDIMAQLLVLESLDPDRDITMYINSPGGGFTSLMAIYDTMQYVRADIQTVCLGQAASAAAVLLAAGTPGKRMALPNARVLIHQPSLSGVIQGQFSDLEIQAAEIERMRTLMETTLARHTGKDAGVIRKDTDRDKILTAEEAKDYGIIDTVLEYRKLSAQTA

Results are given as percent effect. How 0% and 100% were set is not recorded. Most values in the screen are low, and negative values occur. The compounds are a random part of those screened. Two or more numbers in one place are separate tests of the same structure; such repeats can differ widely. A dash means the value is not listed here; it may have been measured.

Result for COCCN(C(=O)c1ccoc1C)c1ccc(C#N)cc1 was Toxoplasma: 4.402%; ClpP1P2: 4.481%; Leishmania in macrophages: 19.9%; T. brucei: -46.54%.
Result for CCNC(=O)NCc1nn(CCN2CCCC2)c(=O)c2ccccc12 was Toxoplasma: 21.21%; ClpP1P2: -5.331%; Leishmania in macrophages: 17.95%; T. brucei: -57.3%.
Result for c1ccc(OCc2nnc3n2CCN(Cc2ccco2)C3)nc1 was ClpP1P2: -2.411%.
Result for CCS(=O)(=O)N1CCC2(CC1)CN(CC1CCOC1)c1ccccc12 (stereo not given) was ClpP1P2: -43.48%.
Result for CCNC(=O)c1ccc(N2CCCC(c3nccn3C(C)C)C2)nc1 (stereo not given) was Toxoplasma: 0.4405%; ClpP1P2: -15.63%; Leishmania in macrophages: 5.984%; T. brucei: 40.45%.
Result for Cl.Cl.c1cncc(COC[C@@H]2CCC[C@@]23CNCCO3)c1 was Toxoplasma: 4.53%; Leishmania in macrophages: 73.99%; T. brucei: -44.98%.
Result for O=C(O)C(F)(F)F.[H][C@]12CC[C@@]3(N=C(C)N(CC(C)C)C3=O)[C@@]1([H])CN(CC(=O)N(C)C)C2 was Toxoplasma: -10.76%; Leishmania in macrophages: -10.37%; T. brucei: -41.73%.
Result for COc1cccc(-n2c(C)cc(C(=O)NS(C)(=O)=O)c2C)c1 was ClpP1P2: 1.87%; Leishmania in macrophages: 18.26%; T. brucei: -27.33%.
Result for O=C(c1cnc(C2CC2)nc1)N1CCC(N2CCC(O)CC2)CC1 was Toxoplasma: 7.896%; ClpP1P2: -6.351%; Leishmania in macrophages: 17.19%; T. brucei: -41.35%.
Result for Cc1ccc(N2CCCC(NCc3cc(C)on3)C2)nn1 (stereo not given) was Toxoplasma: 18.4%; ClpP1P2: -28.11%; Leishmania in macrophages: 6.363%.
Result for [H][C@@]12CN(C(=O)[C@H]3CCCO3)C[C@@]1([H])N(CC(C)C)C(=O)CO2 was Toxoplasma: 3.465%; Leishmania in macrophages: 3.341% and 5.501%; T. brucei: -25.32%.
Result for CCOCc1nc(N2CCCC2)sc1C(=O)NCc1ccco1 was Toxoplasma: 8.477%; ClpP1P2: -13.07%; Leishmania in macrophages: 7.538%; T. brucei: 16.94%.
Result for CCCN1CCC(c2nc3ccc(C)cn3n2)CC1.O=C(O)C(F)(F)F was Toxoplasma: 16.84%; Leishmania in macrophages: 17.32%; T. brucei: -3.573%.
Result for O=C(O)C(F)(F)F.O=S(=O)(C1CC1)N1CC[C@@H](OCC2CC2)[C@@H]1Cc1ccncc1 was Toxoplasma: 10.39%; Leishmania in macrophages: 5.854%; T. brucei: -7.151%.
Result for Cc1nnc(N2C[C@H](C(=O)NCC3CC3)[C@@H]3CCO[C@@H]3C2)s1 was ClpP1P2: -23.19%.
Result for CCN(CC(=O)N(C)C)C(=O)C(C)(C)c1ccc2c(c1)OCCO2 was Toxoplasma: -33.22%; ClpP1P2: -5.572%; Leishmania in macrophages: 4.156%; T. brucei: -14.19%.
Result for CN(Cc1ccc(F)cc1)CC1(O)CCN(C(=O)c2ccncc2)C1 (stereo not given) was Toxoplasma: -31.94%; ClpP1P2: -2.357%; Leishmania in macrophages: 1.007% and 10.73%; T. brucei: -4.351%.
Result for COC(=O)c1ccc(Cn2nc(C)cc2C)cc1 was Toxoplasma: 17.77%; ClpP1P2: 8.85%; Leishmania in macrophages: -6.056%.
Result for Cn1cc([C@@H]2CN(S(C)(=O)=O)C[C@H]2N)c2ccncc21 was ClpP1P2: 2.167%.
Result for CC(C)C(O)C(C)(C)CNC(=O)NCc1ccc(-n2cncn2)cc1 (stereo not given) was Toxoplasma: -2.145%; ClpP1P2: 6.435%; Leishmania in macrophages: -33.33%; T. brucei: 6.534%.

2 of the entries, repeated:

| Compound | Toxoplasma | ClpP1P2 | Leishmania in macrophages | T. brucei |
|---|---|---|---|---|
| `c1ccc(OCc2nnc3n2CCN(Cc2ccco2)C3)nc1` | - | -2.411 | - | - |
| `CN(Cc1ccc(F)cc1)CC1(O)CCN(C(=O)c2ccncc2)C1` (stereo not given) | -31.94 | -2.357 | 1.007 and 10.73 | -4.351 |

Source: ChEMBL document CHEMBL3988442, “University of Dundee, Small-Polar-MMV Screening Library” (2021).